# In the supplement of paper PMC12889115:
# Some of the results follow. Values are raw readings; no control value is given beside them.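 First-pass screen: polymyxin B was added at a level that permeabilizes the Salmonella outer membrane while sparing the inner membrane. DMSO wells, with and without polymyxin B, defined maximum growth. Because plates differed from one another, each plate's data were ranked separately and the compounds with the lowest OD600 were carried forward as hits.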
# Tested on: Salmonella enterica serovar Typhimurium SL1344
# Test: bacterial growth OD600 after 18 h with compound and polymyxin B; higher = more bacterial growth (less inhibition)
# Conditions: 50 µM, Mueller-Hinton broth
SMILES,bacterial growth OD600 (polymyxin B 0.75 µg/mL),bacterial growth OD600 (polymyxin B 1 µg/mL)
COc1cccc(N2C(=O)CN(C(=O)COc3ccc(C)cc3)CC2C)c1 (stereo unspecified),0.802,
O=C(CCc1cccnc1)NCc1nnc2n1CCN(C(=O)/C=C/c1cc(F)ccc1F)CC2,0.876,
COCCNC(=O)c1ccc(OC)cc1OC1CCN(Cc2ccc(Cl)c(F)c2)CC1,,0.46
CCOc1ccc2nc(N3CCCC(N(C)CCc4cn[nH]c4)CC3)nc(C)c2c1 (stereo unspecified),0.811,
COc1ccccc1CN1C(=O)O[C@@H]2CN(C(=O)NCc3ccccc3)C[C@@H]21,0.797,
Cc1ccc(-n2cc(CN3CCOCC3)c(-c3cccc(C)c3)n2)cc1,,0.761
COc1ccc(CCc2nnc(CCC(=O)N3CCC(c4ccc(F)cc4)C3)o2)cc1 (stereo unspecified),,0.81
O=C1CCC(C(=O)N2CCC(CCn3cccn3)CC2)CN1CC1CCCCC1 (stereo unspecified),,0.985
CCN1CCN(CC(=O)N2CCCC(CCc3ccccc3F)C2)CC1 (stereo unspecified),0.851,
COc1cccc(-c2ccc(NC(=O)C3CCCN(C(=O)c4cscn4)C3)cc2)c1 (stereo unspecified),,0.642
CSCCC(=O)NC1CCCc2nc(-c3ccccc3)ncc21 (stereo unspecified),,0.931
CCCc1cc(C(=O)NCc2nc(-c3ccc(NC(=O)c4ccc(COC)o4)cc3)oc2C)no1,0.006,
COc1cc(CC2(CCC(=O)N(C)Cc3nc4cc(C)c(C)cc4[nH]3)CCC(=O)N2)ccc1F (stereo unspecified),0.86,
C=C(C)CCC(C)N1CCC(N2CCC(C(=O)NCc3cccnc3)CC2)CC1 (stereo unspecified),,1.11
CCOC(=O)CC1COCCN1C(=O)c1csc2nc(-c3ccc(F)cc3)cn12 (stereo unspecified),,1.23
Cc1ccc2c(c1)CN(C(=O)CSc1ccccn1)CC(c1ccsc1)O2 (stereo unspecified),0.071,

SMILES,bacterial growth OD600 (polymyxin B 0.75 µg/mL),bacterial growth OD600 (polymyxin B 1 µg/mL)
CC(=O)c1ccc(F)c(-c2cc(C)cc3c2OC(CNC(=O)/C=C/c2ccccn2)C3)c1 (stereo unspecified),0.008,
O=C(Cn1cc2ccccc2n1)NC1CC(=O)N(Cc2ccc(F)cc2)C1 (stereo unspecified),,0.873
CC(C)C(=O)N1CCC(n2c(-c3ccc4c(c3)OCO4)nc3cc(C(F)(F)F)ccc32)CC1,0.798,
CCOc1cc(CN2CCCC(CNC(=O)c3cccs3)C2)ccc1OC (stereo unspecified),,0.958
O=C1N(CCc2ccccc2)C[C@@H]2C[C@@H](c3ccccc3)N3CCC[C@@]123,,0.997
COc1ccc(C(=O)NCCN2Cc3ccccc3OC(c3ccccc3)C2)c(OC)c1 (stereo unspecified),0.015,
O=C(c1cscn1)N1CCC2(CCCN(Cc3ccc(F)c(F)c3)C2=O)C1 (stereo unspecified),,0.924
Cc1ccccc1-c1ccc(CN(C)Cc2nc(-c3ccccc3NS(C)(=O)=O)oc2C)cc1,0.748,
CCn1cc(CNC(=O)c2ccc(OC)c(OC3CCN(C(C)C)CC3)c2)cn1,,1.04
O=C(CCc1ccccc1)N1CCCC(N2CCN(c3cccc(Cl)c3)CC2)C1 (stereo unspecified),,0.686
COc1cccc(-c2nc3ccc(C(=O)NCc4cc(C)n(C)n4)cc3o2)c1,,1.1
COc1ccc(CN2CCN(Cc3cc(OC)cc(OC)c3)C(CCO)C2)cc1 (stereo unspecified),,0.845
CN(CCc1cnn(C)c1)Cc1cn(C)nc1-c1ccc2c(c1)OCCO2,,0.876
CC(=O)Nc1ccc(CN2CCOc3ccc(CN4CCC(Oc5cccnc5)CC4)cc3C2)cc1,0.799,
O=C(C#Cc1ccccc1)N1CCC(CO)(Cc2ccccc2Cl)CC1,,0.08
